Measured values taken from PubChem BioAssay AID186 (DTP/NCI, 2004).
Values are animals surviving of animals treated; these mice carried no tumour. Counts of survivors are from the toxicity check (mostly the fifth day) where no day follows; animals may have died later. Schedule codes are those of the source, read here as Q, the interval in days (D) or hours (H), X, the number of doses.

Tested on: B6D2F1 mice, nontumored toxicity test, survival
Experiment: NCI In Vivo Anticancer Drug Screen. Data for tumor model Nontumored Animals (Toxicity Test) in B6D2F1 (BDF1) mice

Cc1[nH]c(=O)[nH]c(=O)c1N(CCF)CCCl
survivor count (dose: 16.0 mg/kg/injection, schedule: Q04DX003 (ip), vehicle: acid diluted with saline): 8 of 8
survivor count (dose: 16.0 mg/kg/injection, schedule: Q04DX003 (ip), vehicle: saline with Tween-80): 8 of 8
survivor count (dose: 32.0 mg/kg/injection, schedule: Q04DX003 (ip), vehicle: acid diluted with saline): 8 of 8
survivor count (dose: 32.0 mg/kg/injection, schedule: Q04DX003 (ip), vehicle: saline with Tween-80): 8 of 8
survivor count (dose: 64.0 mg/kg/injection, schedule: Q04DX003 (ip), vehicle: acid diluted with saline): 8 of 8
survivor count (dose: 64.0 mg/kg/injection, schedule: Q04DX003 (ip), vehicle: saline with Tween-80): 7 of 8
survivor count (dose: 128.0 mg/kg/injection, schedule: Q04DX003 (ip), vehicle: acid diluted with saline): 8 of 8
survivor count (dose: 128.0 mg/kg/injection, schedule: Q04DX003 (ip), vehicle: saline with Tween-80): 0 of 8
survivor count (dose: 256.0 mg/kg/injection, schedule: Q04DX003 (ip), vehicle: acid diluted with saline): 7 of 8
survivor count (dose: 256.0 mg/kg/injection, schedule: Q04DX003 (ip), vehicle: saline with Tween-80): 0 of 8

Nc1nc(Cl)nc2c1ncn2C1CC(O)C(CO)O1 (centres undefined)
survivor count (dose: 16.0 mg/kg/injection, schedule: Q01DX012 (ip), vehicle: other): 6 of 6
survivor count (dose: 32.0 mg/kg/injection, schedule: Q01DX012 (ip), vehicle: other): 6 of 6
survivor count (dose: 64.0 mg/kg/injection, schedule: Q01DX012 (ip), vehicle: other): 2 of 6
survivor count (dose: 128.0 mg/kg/injection, schedule: Q01DX012 (ip), vehicle: other): 0 of 6

N/C(=N\O)c1cn(C2OC(CO)C(O)C2O)c2ncnc(N)c12 (centres undefined)
survivor count (dose: 0.25 mg/kg/injection, schedule: Q03HX024 (ip), vehicle: saline): 8 of 8
survivor count (dose: 0.5 mg/kg/injection, schedule: Q01DX005 (ip), vehicle: saline): 8 of 8
survivor count (dose: 0.5 mg/kg/injection, schedule: Q01DX009 (ip), vehicle: saline): 8 of 8
survivor count (dose: 0.5 mg/kg/injection, schedule: Q03HX008 (ip), vehicle: saline): 8 of 8
survivor count (dose: 0.5 mg/kg/injection, schedule: Q03HX016 (ip), vehicle: saline): 8 of 8
survivor count (dose: 0.5 mg/kg/injection, schedule: Q03HX024 (ip), vehicle: saline): 8 of 8
survivor count (dose: 1.0 mg/kg/injection, schedule: Q01DX005 (ip), vehicle: saline): 8 of 8
survivor count (dose: 1.0 mg/kg/injection, schedule: Q01DX009 (ip), vehicle: saline): 8 of 8
survivor count (dose: 1.0 mg/kg/injection, schedule: Q03HX008 (ip), vehicle: saline): 8 of 8
survivor count (dose: 1.0 mg/kg/injection, schedule: Q03HX016 (ip), vehicle: saline): 8 of 8
survivor count (dose: 1.0 mg/kg/injection, schedule: Q03HX024 (ip), vehicle: saline): 8 of 8
survivor count (dose: 2.0 mg/kg/injection, schedule: Q01DX005 (ip), vehicle: saline): 8 of 8
survivor count (dose: 2.0 mg/kg/injection, schedule: Q01DX009 (ip), vehicle: saline): 8 of 8
survivor count (dose: 2.0 mg/kg/injection, schedule: Q03HX008 (ip), vehicle: saline): 8 of 8
survivor count (dose: 2.0 mg/kg/injection, schedule: Q03HX016 (ip), vehicle: saline): 8 of 8
survivor count (dose: 2.0 mg/kg/injection, schedule: Q03HX024 (ip), vehicle: saline): 8 of 8
survivor count (dose: 2.0 mg/kg/injection, schedule: Q04DX003 (ip), vehicle: saline): 8 of 8
survivor count (dose: 4.0 mg/kg/injection, schedule: Q01DX001 (ip), vehicle: saline): 8 of 8
survivor count (dose: 4.0 mg/kg/injection, schedule: Q01DX005 (ip), vehicle: saline): 8 of 8
survivor count (dose: 4.0 mg/kg/injection, schedule: Q01DX009 (ip), vehicle: saline): 8 of 8
survivor count (dose: 4.0 mg/kg/injection, schedule: Q01DX009 (oral), vehicle: saline): 8 of 8
survivor count (dose: 4.0 mg/kg/injection, schedule: Q03HX008 (ip), vehicle: saline): 8 of 8
survivor count (dose: 4.0 mg/kg/injection, schedule: Q03HX016 (ip), vehicle: saline): 8 of 8
survivor count (dose: 4.0 mg/kg/injection, schedule: Q03HX024 (ip), vehicle: saline): 6 of 8
survivor count (dose: 4.0 mg/kg/injection, schedule: Q04DX003 (ip), vehicle: saline): 8 of 8
survivor count (dose: 4.0 mg/kg/injection, schedule: Q08DX002 (ip), vehicle: saline): 8 of 8
survivor count (dose: 8.0 mg/kg/injection, schedule: Q01DX001 (ip), vehicle: saline): 8 of 8
survivor count (dose: 8.0 mg/kg/injection, schedule: Q01DX005 (ip), vehicle: saline): 8 of 8
survivor count (dose: 8.0 mg/kg/injection, schedule: Q01DX009 (ip), vehicle: saline): 8 of 8
survivor count (dose: 8.0 mg/kg/injection, schedule: Q01DX009 (oral), vehicle: saline): 8 of 8
survivor count (dose: 8.0 mg/kg/injection, schedule: Q04DX003 (ip), vehicle: saline): 8 of 8
survivor count (dose: 8.0 mg/kg/injection, schedule: Q08DX002 (ip), vehicle: saline): 8 of 8
survivor count (dose: 16.0 mg/kg/injection, schedule: Q01DX001 (ip), vehicle: saline): 8 of 8
survivor count (dose: 16.0 mg/kg/injection, schedule: Q01DX001 (oral), vehicle: saline): 8 of 8
survivor count (dose: 16.0 mg/kg/injection, schedule: Q01DX009 (oral), vehicle: saline): 8 of 8
survivor count (dose: 16.0 mg/kg/injection, schedule: Q04DX003 (ip), vehicle: saline): 8 of 8
survivor count (dose: 16.0 mg/kg/injection, schedule: Q08DX002 (ip), vehicle: saline): 8 of 8
survivor count (dose: 32.0 mg/kg/injection, schedule: Q01DX001 (ip), vehicle: saline): 8 of 8
survivor count (dose: 32.0 mg/kg/injection, schedule: Q01DX001 (oral), vehicle: saline): 8 of 8
survivor count (dose: 32.0 mg/kg/injection, schedule: Q01DX009 (oral), vehicle: saline): 8 of 8
survivor count (dose: 32.0 mg/kg/injection, schedule: Q04DX003 (ip), vehicle: saline): 7 of 8
survivor count (dose: 32.0 mg/kg/injection, schedule: Q08DX002 (ip), vehicle: saline): 8 of 8
survivor count (dose: 64.0 mg/kg/injection, schedule: Q01DX001 (oral), vehicle: saline): 8 of 8
survivor count (dose: 128.0 mg/kg/injection, schedule: Q01DX001 (oral), vehicle: saline): 8 of 8

COC1=C(N)C(=O)c2nc(-c3nc(C(=O)O)c(C)c(-c4ccc(OC)c(OC)c4O)c3N)ccc2C1=O
survivor count (dose: 0.02 mg/kg/injection, schedule: Q03HX008 (ip), vehicle: other): 8 of 8
